Data: publication PMC12646662
These are yes or no findings as the source states them, for the method shown. In cells and extracts the contact can be indirect. Some binding calls cover weakened binding; strength is not graded here. For some assays here: Tags and fused reporters may be left off the sequences shown.

How the values were obtained:
[1] = target: T1, Catenin Delta 1 (CTNND1), endogenous in SK-Mel-28 cells (human (endogenous in SK-Mel-28)) (UniProt O60716); assay: co-IP; anti-CTNND1 immunoprecipitates from SK-Mel-28 whole-cell lysate, immunoblot; endogenous proteins
T1 sequence: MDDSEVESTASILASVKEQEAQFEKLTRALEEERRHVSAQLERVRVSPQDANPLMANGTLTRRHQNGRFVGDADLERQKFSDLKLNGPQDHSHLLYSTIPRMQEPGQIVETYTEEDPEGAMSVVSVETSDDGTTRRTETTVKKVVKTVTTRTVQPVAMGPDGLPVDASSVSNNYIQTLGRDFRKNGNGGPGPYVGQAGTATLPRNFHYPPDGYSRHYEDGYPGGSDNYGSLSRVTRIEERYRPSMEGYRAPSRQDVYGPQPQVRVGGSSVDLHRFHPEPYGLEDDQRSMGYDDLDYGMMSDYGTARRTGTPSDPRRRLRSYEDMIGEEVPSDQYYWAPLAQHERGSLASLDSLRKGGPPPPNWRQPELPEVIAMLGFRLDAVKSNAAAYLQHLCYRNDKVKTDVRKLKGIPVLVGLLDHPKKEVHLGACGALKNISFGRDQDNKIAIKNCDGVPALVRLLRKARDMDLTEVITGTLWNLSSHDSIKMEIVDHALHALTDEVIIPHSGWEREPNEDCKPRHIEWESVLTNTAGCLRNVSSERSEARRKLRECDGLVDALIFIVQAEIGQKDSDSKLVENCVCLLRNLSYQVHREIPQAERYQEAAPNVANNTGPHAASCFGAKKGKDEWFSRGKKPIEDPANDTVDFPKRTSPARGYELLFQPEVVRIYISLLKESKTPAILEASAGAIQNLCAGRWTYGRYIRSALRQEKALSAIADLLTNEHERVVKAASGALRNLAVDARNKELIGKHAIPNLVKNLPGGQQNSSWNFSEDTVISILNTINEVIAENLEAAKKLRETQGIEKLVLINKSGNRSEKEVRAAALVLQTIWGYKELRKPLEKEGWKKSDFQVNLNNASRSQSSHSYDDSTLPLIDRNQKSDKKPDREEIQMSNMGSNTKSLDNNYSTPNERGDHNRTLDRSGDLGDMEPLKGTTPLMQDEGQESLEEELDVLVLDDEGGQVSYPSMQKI

Flag-CTNND1 (HEK293T) = target: T2, Flag-CTNND1 (HEK293T) (UniProt O60716); assay: co-IP; HEK293T cells transfected with HA-ZDHHC13 and Flag-CTNND1; anti-Flag or anti-HA immunoprecipitates, immunoblot
T2 sequence: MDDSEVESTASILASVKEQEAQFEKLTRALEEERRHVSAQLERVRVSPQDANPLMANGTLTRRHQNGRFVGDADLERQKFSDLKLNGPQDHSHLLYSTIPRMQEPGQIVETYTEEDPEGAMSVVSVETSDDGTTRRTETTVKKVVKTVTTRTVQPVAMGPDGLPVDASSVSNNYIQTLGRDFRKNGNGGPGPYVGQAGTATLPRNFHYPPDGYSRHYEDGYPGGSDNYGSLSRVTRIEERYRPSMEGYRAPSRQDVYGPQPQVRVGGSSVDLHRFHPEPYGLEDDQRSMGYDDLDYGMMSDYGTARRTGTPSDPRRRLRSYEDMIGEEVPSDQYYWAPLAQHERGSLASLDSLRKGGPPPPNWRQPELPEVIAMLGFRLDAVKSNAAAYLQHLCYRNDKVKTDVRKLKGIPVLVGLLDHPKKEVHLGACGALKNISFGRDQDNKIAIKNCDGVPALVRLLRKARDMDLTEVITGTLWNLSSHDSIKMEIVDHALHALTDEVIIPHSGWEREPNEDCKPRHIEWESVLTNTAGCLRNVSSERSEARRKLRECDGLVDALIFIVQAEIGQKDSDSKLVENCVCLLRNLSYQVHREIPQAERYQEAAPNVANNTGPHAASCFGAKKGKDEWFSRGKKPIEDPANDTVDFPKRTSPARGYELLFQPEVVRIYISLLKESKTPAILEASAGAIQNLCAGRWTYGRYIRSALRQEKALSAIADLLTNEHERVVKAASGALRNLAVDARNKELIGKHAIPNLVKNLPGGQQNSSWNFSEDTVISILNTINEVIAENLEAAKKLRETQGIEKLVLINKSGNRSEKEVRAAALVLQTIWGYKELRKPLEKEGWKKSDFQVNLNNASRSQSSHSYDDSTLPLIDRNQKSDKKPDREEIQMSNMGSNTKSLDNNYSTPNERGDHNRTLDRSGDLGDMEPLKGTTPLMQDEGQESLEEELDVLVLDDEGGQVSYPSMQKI

B1: ZDHHC13, endogenous in SK-Mel-28 cells (enzyme, UniProt Q8IUH4 1-622)
chain: MEGPGLGSQCRNHSHGPHPPGFGRYGICAHENKELANAREALPLIEDSSNCDIVKATQYGIFERCKELVEAGYDVRQPDKENVSLLHWAAINNRLDLVKFYISKGAVVDQLGGDLNSTPLHWAIRQGHLPMVILLLQHGADPTLIDGEGFSSIHLAVLFQHMPIIAYLISKGQSVNMTDVNGQTPLMLSAHKVIGPEPTGFLLKFNPSLNVVDKIHQNTPLHWAVAAGNVNAVDKLLEAGSSLDIQNVKGETPLDMALQNKNQLIIHMLKTEAKMRANQKFRLWRWLQKCELFLLLMLSVITMWAIGYILDFNSDSWLLKGCLLVTLFFLTSLFPRFLVGYKNLVYLPTAFLLSSVFWIFMTWFILFFPDLAGAPFYFSFIFSIVAFLYFFYKTWATDPGFTKASEEEKKVNIITLAETGSLDFRTFCTSCLIRKPLRSLHCHVCNCCVARYDQHCLWTGRCIGFGNHHYYIFFLFFLSMVCGWIIYGSFIYLSSHCATTFKEDGLWTYLNQIVACSPWVLYILMLATFHFSWSTFLLLNQLFQIAFLGLTSHERISLQKQSKHMKQTLSLRKTPYNLGFMQNLADFFQCGCFGLVKPCVVDWTSQYTMVFHPAREKVLRSV
binding [1]: binds

B2: HA-ZDHHC13 (HEK293T) (enzyme, UniProt Q8IUH4 1-622)
chain: MEGPGLGSQCRNHSHGPHPPGFGRYGICAHENKELANAREALPLIEDSSNCDIVKATQYGIFERCKELVEAGYDVRQPDKENVSLLHWAAINNRLDLVKFYISKGAVVDQLGGDLNSTPLHWAIRQGHLPMVILLLQHGADPTLIDGEGFSSIHLAVLFQHMPIIAYLISKGQSVNMTDVNGQTPLMLSAHKVIGPEPTGFLLKFNPSLNVVDKIHQNTPLHWAVAAGNVNAVDKLLEAGSSLDIQNVKGETPLDMALQNKNQLIIHMLKTEAKMRANQKFRLWRWLQKCELFLLLMLSVITMWAIGYILDFNSDSWLLKGCLLVTLFFLTSLFPRFLVGYKNLVYLPTAFLLSSVFWIFMTWFILFFPDLAGAPFYFSFIFSIVAFLYFFYKTWATDPGFTKASEEEKKVNIITLAETGSLDFRTFCTSCLIRKPLRSLHCHVCNCCVARYDQHCLWTGRCIGFGNHHYYIFFLFFLSMVCGWIIYGSFIYLSSHCATTFKEDGLWTYLNQIVACSPWVLYILMLATFHFSWSTFLLLNQLFQIAFLGLTSHERISLQKQSKHMKQTLSLRKTPYNLGFMQNLADFFQCGCFGLVKPCVVDWTSQYTMVFHPAREKVLRSV
binding (Flag-CTNND1 (HEK293T)): binds
